Test results: patent publication US20240108662A1, “ENGINEERED CELLS FUNCTIONALIZED WITH IMMUNE CHECKPOINT MOLECULES AND USES THEREOF” (The University of North Carolina at Chapel Hill, priority 2020, published 2024)

Assay: Proteomic analysis of native murine pancreata and decelled pancreatic ECM (Table 1)
Set-up: species or system mouse
Settings: for Pancreatic ECM: Mean of log2(intensities): abundance of the listed protein in decelled pancreatic ECM; for Native pancreas tissue: Mean of log2(intensities): abundance of the listed protein in native murine pancreas tissue; for Mean of log2(intensities), Pancreatic ECM: decelled pancreatic ECM (spin-decell protocol); for Mean of log2(intensities), Native pancreas tissue: native murine pancreas tissue

| Molecule | Pancreatic ECM: Mean of log2(intensities) | Native pancreas tissue: Mean of log2(intensities) | Mean of log2(intensities), Pancreatic ECM | Mean of log2(intensities), Native pancreas tissue |
| --- | --- | --- | --- | --- |
| Q91YQ5 (protein, UniProt Q91YQ5 1-608, looked up, full-length) MESPVALLLLLLLCLGALAPTPGSASSEAPPLVNEDVKRTVDLSSHLAKVTAEVVLVHPGGGSTSRASSFVLALEPELESRLAHLGVQIKGEDEEDNNLEVRETKIKGKSGRFFTVKLPVALDPGSKISVVVETVYTHVLHPYPTQITQSEKQFVVFEGNHYFYSPYPTKTQTMRVKLASRNVESYTKLGNPSRSEDVLDYGPFKDIPAYSQDTFKVHYENNSPFLTITSMTRVIEVSHWGNIAVEENVDLKHTGAVLKGPFSRYDYQRQPDSGISSIRSFKTILPAAAQDVYYRDEIGNVSTSHLLILDDSVEMEIRPRFPLFGGWKTHYIVGYNLPSYEYLYNLGDQYALKMRFVDHVFDEQVIDSLTVKIILPEGAKNIQVDSPYDISRAPDELHYTYLDTFGRPVIVAYKKNLVEQHIQDIVVHYTFNKVLMLQEPLLVVAAFYILFFTVIIYVRLDFSITKDPAAEARMKVACITEQVLTLVNKRLGLYRHFDETVNRYKQSRDISTLNSGKKSLETEHKAVTSEIAVLQSRLKTEGSDLCDRVSEMQKLDAQVKELVLKSAVEAERLVAGKLKKDTYLENEKLSSGKRQELVTKIDHILDAL | 33.48 a.u. | 32.38 a.u. |  |  |
| P62818 (protein, UniProt P62818 1-101, looked up, full-length) MTRPLEQAVAAIVCTFQEYAGRCGDKYKICQSELKELLQKELPTWTPSEFRECDYNKFMSVLDTNKDCEVDFGEYVRSLASLCLYCHEYFKECPPEPPCPQ |  |  | 23.62 a.u. | 22.32 a.u. |
| Q6ZWQ7 (protein, UniProt Q6ZWQ7 1-180, looked up, full-length) MNTVLSRANSLFAFSLSVMAALTFGCFITTAFKDRSVPVRLHVSRIMLKNVEDFTGPRERSDLGFITFDITADLENIFDWNVKQLFLYLSAEYSTKNNALNQVVLWDKIVLRGDNPKLLLKDMKTKYFFFDDGNGLKGNRNVTLTLSWNVVPNAGILPLVTGSGHVSVPFPDTYEITKSY |  |  | 30.70 a.u. | 29.41 a.u. |
| Q9QYG0 (protein, UniProt Q9QYG0 1-371, looked up, full-length) MAELQEVQITEEKPLLPGQTPETAKEAELAARILLDQGQTHSVETPYGSVTFTVYGTPKPKRPAIFTYHDVGLNYKSCFQPLFRFGDMQEIIQNFVRVHVDAPGMEEGAPVFPLGYQYPSLDQLADMIPCILQYLNFSTIIGVGVGAGAYILSRYALNHPDTVEGLVLINIDPNAKGWMDWAAHKLTGLTSSIPDMILGHLFSQEELSGNSELIQKYRGIIQHAPNLENIELYWNSYNNRRDLNFERGGETTLKCPVMLVVGDQAPHEDAVVECNSKLDPTQTSFLKMADSGGQPQLTQPGKLTEAFKYFLQGMGYMASSCMTRLSRSRTASLTSAASIDGSRSRSRTLSQSSESGTLPSGPPGHTMEVSC |  |  | 23.06 a.u. | 21.90 a.u. |
| Q9ERE2 (protein, UniProt Q9ERE2 1-481, looked up, full-length) MTCGSGFCGRAFSCASACGPRPGRCCISAAPYRGISCYRGLSGGFGSQSVCGAFRSGSCGRSFGYRSGGICGPSPPCITTVSVNESLLTPLNLEIDPNAQCVKHEEKEQIKCLNSKFAAFIDKVRFLEQQNKLLETKWQFYQNRKCCESNMEPLFEGYIEALRREAECVEADSGRLAAELNHAQESMEGYKKRYEEEVSLRATAENEFVALKKDVDCAYLRKSDLEANAEALTQETDFLRRMYDEETRILHSHISDTSIVVKMDNSRDLNMDCVVAEIKAQYDDIASRSRAEAESWYRTKCEEIKATVIRHGETLRRTREEINELNRMIQRLTAEIENAKCQNTKLEAAVTQSEQQGEAALADARCKLAELEGALQKAKQDMACLLKEYQEVMNSKLGLDVEITTYRRLLEGEEQRLCEGVGAVNVCVSSSRGGVVCGDLCVSGSRPVIGSACSAPCSGNLAVNTGLCAPCGSAVSCGRKC | 31.52 a.u. | 21.31 a.u. |  |  |
| P17892 (protein, UniProt P17892 1-482, looked up, full-length) MPMDVRGCLFPSVQMLLCWLVSLLLATVGGKEVCYGHLGCFSNDKPWAGMIQRPSKIFPWSPEDIDTRFLLYTNENPNNYQIISATDPATINASNFQLDRKTRFIIHGFIDKGEEGWLLDMCKKMFQVEKVNCICVDWKRGSRTEYTQASYNTRVVGAEIAFLVQVLSTEMGYSPENVHLIGHSLGSHVAGEAGRRLEGHVGRITGLDPAEPCFQGLPEEVRLDPSDAMFVDVIHTDSAPIIPYLGFGMSQKVGHLDFFPNGGKEMPGCQKNILSTIVDINGIWEGTRNFAACNHLRSYKYYASSILNPDGFLGYPCSSYEKFQHNDCFPCPEQGCPKMGHYADQFEGKTATVEQTFFLNTGDSGNFTRWRYKVSVTLSGAKKLSGYILVALYGCNGNSKQYEVFKGSLQPEARYIRDIDVDVNVGEIQKVKFLWNNKVINLFRPTMGASQITVQRGKDGKEFNFCSSNTVHEDVLQSLYPC |  |  | 31.11 a.u. | 30.09 a.u. |
| CON__Q9D646;Q9D646 (protein, UniProt Q9D646 1-392, looked up) Keratin, type I cuticular Ha4: MSCESCLPALSCRTSCSSRPCVPPSCHGCTLPGACNIPANVGNCNWFCEGSFNGNEKETMQFLNDRLASYMEKVRQLERENAELECRIQERNQQQDPLVCPAYQAYFRTIEELQQKILCAKSENARLVVQIDNAKLASDDFRTKYQTELSMRQLVEADINSLRRILDELTLCKSDLEAQVESLREELLCLKKNHEEEVNTLRCQLGDRLNVEVDAAPTVDLNRVLNETRCQYEALVETNRREVEEWFTTQSEELNKQVVSSSEQLQSCQAEIIELRRTVNALEIELQAQHCMRNSLENTLTESEARYSSQLSQVQCLITNVESQLGEIRADLERQNQEYQVLLDVRARLECEINTYRSLLESEDCNLPCNPCATTNASGSCCGPCGSSKRCC | 30.92 a.u. | 21.97 a.u. |  |  |
